The data set can be described thus: H2S release in human serum (dansylazide method). It counts as in vitro ADME. The conditions noted are these: 37 °C, 200 µM.

Turning to `C=CCSCC(NC(C)=O)C(=O)O` (stereo not drawn) [Compound 1], the “% H2S mol/mol ± SE” value runs as follows: (1 h) 0.4 ± 0.1 % mol/mol; (4 h) 1.5 ± 0.1 % mol/mol; (24 h) 3.9 ± 0.9 % mol/mol.
On the same counts, the results for `C=CCSSCCC(=O)O` [Compound 3] are 1.5 ± 0.2 % mol/mol, 8.2 ± 0.3 % mol/mol and 23 ± 2 % mol/mol.
On the same counts, the results for `C=CCSSCCC(=O)OCC` [Compound 4] are 5.8 ± 0.2 % mol/mol, 10 ± 1 % mol/mol and 24.2 ± 0.9 % mol/mol.
In the case of `C=CCSSCC(NC(C)=O)C(=O)O` (stereo not drawn) [Compound 5], the “% H2S mol/mol ± SE” value amounted to 2.7 ± 0.2 % mol/mol (1 h), 11 ± 2 % mol/mol (4 h) and 21 ± 1 % mol/mol (24 h).
On to `O=C(O)CCC(=O)NSC(=O)c1ccccc1` [Compound 7], for which the “% H2S mol/mol ± SE” value by setting is: (1 h) 0.3 ± 0.2 % mol/mol; (4 h) 1.4 ± 0.2 % mol/mol; (24 h) 5 ± 1 % mol/mol.
As to `CC(=O)NSC(=O)c1ccccc1` [Compound 8], the “% H2S mol/mol ± SE” value is listed as 16 ± 1 % mol/mol (1 h), 25.8 ± 0.4 % mol/mol (4 h) and 47 ± 1 % mol/mol (24 h).
On the same counts, the results for `O=C(O)c1ccc(-c2ssc(=S)c2-c2ccccc2)cc1` [Compound 9] are 0.4 ± 0.1 % mol/mol, 1.7 ± 0.6 % mol/mol and 4.4 ± 0.9 % mol/mol.
Regarding `COC(=O)c1ccc(-c2ssc(=S)c2-c2ccccc2)cc1` [Compound 10], the “% H2S mol/mol ± SE” value worked out at 1.8 ± 0.3 % mol/mol (1 h), 7.5 ± 0.6 % mol/mol (4 h) and 12.0 ± 0.9 % mol/mol (24 h).
`O=C(O)c1ccc(-c2cssc2=S)cc1` [Compound 11]: the “% H2S mol/mol ± SE” value reads like this: (1 h) 0.4 ± 0.4 % mol/mol; (4 h) 4 ± 1 % mol/mol; (24 h) 33 ± 4 % mol/mol.
Take `CCOC(=O)c1ccc(-c2cssc2=S)cc1` [Compound 12]: the “% H2S mol/mol ± SE” value by setting is: (1 h) 17 ± 8 % mol/mol; (4 h) 63 ± 30 % mol/mol; (24 h) 146 ± 34 % mol/mol.
On the same counts, the results for `O=C(O)COc1ccc(-c2cc(=S)ss2)cc1` [Compound 13] are 0 % mol/mol, 0.7 ± 0.2 % mol/mol and 2.4 ± 0.5 % mol/mol.
On the same counts, the results for `CCOC(=O)COc1ccc(-c2cc(=S)ss2)cc1` [Compound 14] are 0 % mol/mol, 0.5 ± 0.3 % mol/mol and 1.8 ± 0.6 % mol/mol.
The matching figures for `O=C(O)c1csc(=S)s1` [Compound 15]: 0.2 ± 0.4 % mol/mol, 1.3 ± 0.2 % mol/mol and 2.8 ± 0.5 % mol/mol.
As for `COC(=O)c1csc(=S)s1` [Compound 16], the “% H2S mol/mol ± SE” value is recorded as 0.4 ± 0.2 % mol/mol (1 h), 1.7 ± 0.5 % mol/mol (4 h) and 2.5 ± 0.9 % mol/mol (24 h).
On the same counts, the results for `NC(=S)c1ccc(C(=O)O)cc1` [Compound 17] are 0.2 ± 0.2 % mol/mol, 1.0 ± 0.3 % mol/mol and 6 ± 1 % mol/mol.
The matching figures for `COC(=O)c1ccc(C(N)=S)cc1` [Compound 18]: 1.4 ± 0.4 % mol/mol, 11.0 ± 0.3 % mol/mol and 44 ± 2 % mol/mol.

These data come from paper PMC9951978, “Comparative Study of Different H2S Donors as Vasodilators and Attenuators of Superoxide-Induced Endothelial Damage” (Antioxidants, 2023).
